Source: PMC10031136
These are yes or no findings as the source states them, for the method shown. In cells and extracts the contact can be indirect. Some binding calls cover weakened binding; strength is not graded here.

Sequences of proteins named here, by UniProt entry; tags and fusion partners are left off.
UniProt Q9QUR7: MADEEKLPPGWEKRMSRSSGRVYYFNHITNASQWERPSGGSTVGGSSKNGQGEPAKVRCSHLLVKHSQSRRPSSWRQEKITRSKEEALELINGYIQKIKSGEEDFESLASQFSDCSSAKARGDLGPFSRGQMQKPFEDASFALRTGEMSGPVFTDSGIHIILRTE
UniProt Q02111: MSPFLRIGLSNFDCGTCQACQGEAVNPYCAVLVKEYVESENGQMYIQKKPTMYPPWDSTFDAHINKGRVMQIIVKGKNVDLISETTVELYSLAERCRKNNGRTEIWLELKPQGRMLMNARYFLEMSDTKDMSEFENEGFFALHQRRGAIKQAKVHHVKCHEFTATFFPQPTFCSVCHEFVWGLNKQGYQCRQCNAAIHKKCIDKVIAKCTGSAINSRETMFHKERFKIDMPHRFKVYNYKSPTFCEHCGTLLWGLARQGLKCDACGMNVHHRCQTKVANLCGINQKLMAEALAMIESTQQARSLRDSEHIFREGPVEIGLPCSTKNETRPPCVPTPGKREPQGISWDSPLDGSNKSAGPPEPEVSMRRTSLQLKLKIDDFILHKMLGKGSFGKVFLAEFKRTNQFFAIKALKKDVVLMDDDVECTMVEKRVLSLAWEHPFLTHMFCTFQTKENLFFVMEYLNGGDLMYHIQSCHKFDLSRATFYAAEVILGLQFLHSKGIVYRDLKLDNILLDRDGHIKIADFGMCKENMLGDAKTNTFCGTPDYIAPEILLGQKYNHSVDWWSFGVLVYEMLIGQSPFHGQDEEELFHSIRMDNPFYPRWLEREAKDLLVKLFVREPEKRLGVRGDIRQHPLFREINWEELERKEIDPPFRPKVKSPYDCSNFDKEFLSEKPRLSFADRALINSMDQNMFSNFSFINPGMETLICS

Assays:
[1] = biological target: Pin1 (endogenous in C57BL/6J mouse T cells) (mouse (endogenous in C57BL/6J splenic and thymic T cells)) (UniProt Q9QUR7); assay: co-IP; Pin1 immunoprecipitation from lysates of C57BL/6J thymic T cells activated with anti-CD3ε mAb (2C11) for 0-30 min; immunoblot for PKCθ
[2] = biological target: Pin1 (endogenous in C57BL/6J mouse T cells) (mouse (endogenous in C57BL/6J splenic and thymic T cells)) (UniProt Q9QUR7); assay: co-IP; Pin1 immunoprecipitation from lysates of C57BL/6J splenic T cells activated with anti-CD3ε mAbs (2C11) for 0-5 min or 0-30 min; immunoblot for PKCθ

binding [1]: binds
binding [2]: binds
Substance: Protein kinase C θ (endogenous in C57BL/6J mouse T cells) (from UniProt Q02111 1-707) (enzyme)
